# Primary screen of a compound library

Measurements from “University of Dundee, Small-Polar-MMV Screening Library” (2021), ChEMBL document CHEMBL3988442.

Results are given as percent effect.
The controls that fix the scale are not given in the record; negative values are as filed.
The compounds are a random part of those screened.

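Whole-cell assay for inhibitors of Mycobacterium tuberculosis growth, labelled Cornell in the record; the read-out is not stated. The concentration is filed as 10 mM, unlikely as a test dose, so the dose is not known. Higher means stronger inhibition (inferred from two other growth screens of the library). Of about 53,000 compounds tested this way, about 900 (1.7%) reached 50% or more in at least one test.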

{"compound": "COc1cc(NCc2ccc(Cl)cc2)c(-c2nn[nH]n2)cc1OC", "Percent Effect": 107.2}
{"compound": "O=C(O)C(F)(F)F.O=C(O)C(F)(F)F.O=C1CCC2(CCCN(Cc3nccs3)C2)N1CC1CC1", "stereo": "stereo not shown", "Percent Effect": -17.11}
{"compound": "[H][C@@]12CCN(C(=O)c3cscn3)C[C@@]1([H])O[C@H](c1ccncn1)C2", "Percent Effect": 13.6}
{"compound": "[H][C@]12CC[C@@]3(N=C(C)NC3=O)[C@@]1([H])CN(CC(C)C)C2", "Percent Effect": 8.029}
{"compound": "Cc1cc(C)n(NC(=O)c2ccccc2C)c(=O)c1", "Percent Effect": 5.727}
{"compound": "O=C(CN1CCOCS1(=O)=O)NCc1ccccc1", "Percent Effect": -2.231}
{"compound": "Cc1nc(-c2nnc[nH]2)sc1C(=O)N1CCCC1c1cccs1", "stereo": "stereo not shown", "Percent Effect": -36.77}
{"compound": "O=C(NCC1(N2CCOCC2)CCSC1)Nc1cn[nH]c1", "stereo": "stereo not shown", "Percent Effect": -2.547}
{"compound": "COCCc1noc(CN2CCCC2c2c(C)nn(C)c2OC)n1", "stereo": "stereo not shown", "Percent Effect": 15.42}
{"compound": "Cc1ncsc1C(=O)N1CCC(O)(Cn2c(C)cc3ccncc32)CC1", "Percent Effect": 8.542}
{"compound": "O=C(Nc1ccc(Cn2cccn2)cc1)N1CCC2(CC1)OCCO2", "Percent Effect": -2.641}
{"compound": "COCC1CN(Cc2ccc(OC)cc2)Cc2nn(C)cc21.O=C(O)C(F)(F)F", "stereo": "stereo not shown", "Percent Effect": 102.7}
{"compound": "Cn1cccc1CN1CCC2(CCCN(C(=O)c3cccnc3)C2)CC1.O=C(O)C(F)(F)F.O=C(O)C(F)(F)F", "Percent Effect": 9.807}
{"compound": "COCc1nc2nc(O)c3c(n2n1)NC(=O)CC3c1ccccc1Cl", "stereo": "stereo not shown", "Percent Effect": -59.17}
{"compound": "CC(=O)N1CCC[C@@H](NCc2ccc(F)cc2)[C@@H]1c1ccc(C)s1", "Percent Effect": 1.669}
{"compound": "Cc1cc(C2CCCN(C(=O)COc3cccc(F)c3)C2)n[nH]1", "stereo": "stereo not shown", "Percent Effect": 14.83}
{"compound": "CCc1c(C(=O)NC2CCS(=O)(=O)C2)cnn1-c1ccc(F)cc1", "stereo": "stereo not shown", "Percent Effect": 17.55}
{"compound": "O=C1CC(c2ccncc2)C2(CCN(CCO)CC2)N1", "stereo": "stereo not shown", "Percent Effect": 1.096}
{"compound": "Cc1cccc(OCCC(=O)N2CCCN(C(N)=O)CC2)c1C", "Percent Effect": -11.83}
{"compound": "CC1(C)Oc2ccc(NC(=O)c3ccc(=O)[nH]n3)cc2O1", "Percent Effect": 12.3}
{"compound": "[H][C@]12CC[C@]([H])(CN(Cc3ncc[nH]3)C1)N(Cc1c(C)noc1C)C2=O", "Percent Effect": -19.92}
{"compound": "CC(=O)N1CCC2(CCCN(Cc3ccc(Cl)c(C(F)(F)F)c3)C2)C1", "stereo": "stereo not shown", "Percent Effect": 25.47}
{"compound": "Cc1nc(CNC(=O)CC2C(=O)NCCN2CCC(C)C)n[nH]1", "stereo": "stereo not shown", "Percent Effect": 15.97}
{"compound": "Clc1snnc1CN1CCCC(Cn2cncn2)C1", "stereo": "stereo not shown", "Percent Effect": -7.19}
{"compound": "O=C1CC(c2cccnc2)c2c(sc3c2CCCC3)N1", "stereo": "stereo not shown", "Percent Effect": 30.15}
{"compound": "CN1CCC2(CC1)OC(C(=O)NCc1cccnc1)Cn1ccnc12", "stereo": "stereo not shown", "Percent Effect": 10.15}
{"compound": "[H][C@@]12CN(C(=O)c3cccnc3)C[C@]1([H])OCC(=O)N2Cc1cccnc1", "Percent Effect": 14.21}
{"compound": "Clc1cc(N2CCC(N3CCCC3)CC2)nc2[nH]ccc12", "Percent Effect": -10.59}
{"compound": "CCSc1nnc(N(CCC#N)CCC#N)s1", "Percent Effect": 19.26}
{"compound": "O=c1ccc2c(n1CCN1CCCC1)CCN(c1ncccn1)CC2", "Percent Effect": 13.32}
{"compound": "O=C(c1cc(-n2cccn2)ccc1Cl)N1CCCC(N2CCCC2)C1", "stereo": "stereo not shown", "Percent Effect": 17.25}
{"compound": "CCn1ncc2c1C(COCC1CC1)CN(c1ccncn1)C2.O=C(O)C(F)(F)F.O=C(O)C(F)(F)F", "stereo": "stereo not shown", "Percent Effect": -23.34}
{"compound": "O=C1CC(c2cccnc2)c2c(c(C(=O)O)cn2-c2ccccc2F)N1", "stereo": "stereo not shown", "Percent Effect": 11.88}
{"compound": "CCN1CCN(C(=O)c2cccc(CN3CCOCC3)c2)CC1", "Percent Effect": 17.05}

4 of the entries, repeated:

| Compound | Percent Effect |
|---|---|
| `CCn1ncc2c1C(COCC1CC1)CN(c1ccncn1)C2.O=C(O)C(F)(F)F.O=C(O)C(F)(F)F` (stereo not shown) | -23.34% |
| `O=C(CN1CCOCS1(=O)=O)NCc1ccccc1` | -2.231% |
| `O=C1CC(c2cccnc2)c2c(c(C(=O)O)cn2-c2ccccc2F)N1` (stereo not shown) | 11.88% |
| `[H][C@@]12CN(C(=O)c3cccnc3)C[C@]1([H])OCC(=O)N2Cc1cccnc1` | 14.21% |